Screen size: about 400,000 compounds; about 5,500 (1.4%) were called active. The inconclusive results got no clear call from the source; some entries with a clear call stand among them for comparison. Calls follow the shape of the dose curve; as a rule, active = well fitted cell-killing curve with a large enough effect; inconclusive = small, poorly fitted or top-dose-only effect, or effect the other way; inactive = flat fitted curve, though single readings scatter. Where the call is inconclusive, the potency comes from a doubtful curve fit.
Test: qHTS assay for MDR1-selective chemotherapeutics: Primary screen using the parental adenocarcinoma cell KB-3-1; also: nearly all actives have a fitted effect of over 60% in size
Conditions: KB-3-1 viability, CellTiter-Glo ATP luminescence, 72 h; activity change, negative = cytotoxic: at 46.1 µM (top of the series)
How it was run: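 72 h, 37 °C compound treatment of KB-3-1 parental cells; CellTiter-Glo added, 10 min, luminescence read. Data corrected against DMSO-only plates and normalized before curve fitting.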
% is scaled to controls: 0 for no effect and ±100 for the full control effect; potency is read from the fitted curve at half-maximal effect.

| SMILES | Potency | activity change, negative = cytotoxic |
| --- | --- | --- |
| Cc1ccc(S(=O)(=O)N2CCN(C(=O)CSCc3ccc(C(C)C)cc3)CC2)cc1 | inconclusive: 29.1 µM [cytotoxic, single point] | – |
| Cc1cc2c(cc(C(=O)OCC(=O)NCc3ccco3)n2C)s1 | active: 5.8 µM | – |
| CC(C)(C)C(=O)Nc1nc(-c2ccc3c(c2)OCO3)cs1 | inactive | – |
| COC(=O)c1ccc(NC2=CC(=O)CC(C)(C)C2)cc1 | inconclusive: 16.4 µM [cytotoxic, single point] | – |
| Cc1ccc(Nc2nc3ccccc3nc2Nc2c(C)n(C)n(-c3ccccc3)c2=O)cc1 | inactive | – |
| COP(=O)(OC)c1nc(-c2cccc3ccccc23)oc1NCc1ccccc1 | inconclusive: 29.1 µM [rising, single point] | – |
| Cc1ccc2c(C)c(C(=O)N3CCN(C4CCS(=O)(=O)C4)CC3)oc2c1C (stereo not drawn) | inconclusive: 4.11 µM [rising, full curve, poor fit] | – |
| CCN1/C(=C/C=C/c2sc3ccccc3[n+]2CC)Sc2ccccc21 | active: 16.4 µM | – |
| Cc1cccc(C2(c3cccc(C)c3)CC2C(=O)Nc2ccc([N+](=O)[O-])cc2O)c1 (stereo not drawn) | active: 20.6 µM | – |
| COc1ccc(C(=O)O/N=C(\N)Cc2ccc(Cl)c(Cl)c2)cc1OC | inconclusive: 29.1 µM [cytotoxic, single point] | – |
| CCC(=O)Nc1ccc(C(=O)NCc2ccccn2)cc1 | inconclusive: 6.51 µM [rising, full curve, poor fit] | – |
| O=C(COc1ccccc1)NCC(=O)N/N=C/c1ccccc1 | inconclusive: 23.1 µM [rising, single point] | – |
| COc1ccc(-n2cc(C(=O)c3ccc4ccccc4c3O)cn2)cc1 | inconclusive: 29.1 µM [rising, single point] | – |
| CCNC(=O)C1(C)CCN1C(=O)CCc1cccc(Cl)c1 (stereo not drawn) | – | inconclusive: -0.185% |
| CCN(CC)C(=O)c1cccc(-c2csc(C(C)(O)c3ccc(OC)cc3)n2)c1 (stereo not drawn) | active: 11.6 µM | – |
| Nc1ccc(/C=C/C(=O)c2cccs2)cc1 | inconclusive: 29.1 µM [rising, single point] | – |
| C=CC(COCc1ccccc1)N(Cc1ccccc1)S(=O)(=O)c1ccccc1Br (stereo not drawn) | inconclusive: 23.1 µM [rising, partial curve, poor fit] | – |
| COc1cc(C(=O)/C=C/c2cccnc2)c([N+](=O)[O-])cc1OC | inconclusive: 2.59 µM [cytotoxic, partial curve, poor fit] | – |
| CCCCC(=O)N(c1ccc(OCC)cc1)C1C=CS(=O)(=O)C1 (stereo not drawn) | inactive | – |
| COc1ccc(CNc2ncnc3cc(Cl)ccc23)cc1 | inconclusive: 14.6 µM [cytotoxic, partial curve] | – |
| CSCC[C@H](NC(=O)c1ccc(Cl)c([N+](=O)[O-])c1)c1nc2ccccc2[nH]1 | inconclusive: 4.11 µM [cytotoxic, full curve, poor fit] | – |
| Cc1ccc2cccc(NS(=O)(=O)c3ccccc3)c2n1 | inconclusive: 29.1 µM [cytotoxic, single point] | – |
| OC(c1ccccc1)c1nc(-c2cc3ccccc3o2)cs1 (stereo not drawn) | inconclusive: 18.4 µM [cytotoxic, single point] | – |
| CCOc1ccccc1CN1CCC(n2nccc2NC(=O)CCCc2ccccc2)CC1 | inactive | – |
| CCc1nc2ccc(C(=O)N(CC)CCN(C)C)cn2c1N(C)C(=O)c1cccc(OC)c1 | inactive | – |

| SMILES | Potency | activity change, negative = cytotoxic |
| --- | --- | --- |
| CC[N+]1(C)CCC(O)(/C=C/c2ccccc2)C(C(=O)/C=C/c2ccccc2)C1 (stereo not drawn) | inconclusive: 20.6 µM [cytotoxic, single point] | – |
| Cc1ccc(S(=O)ONc2cccc(NOS(=O)c3ccc(C)cc3)c2)cc1 (stereo not drawn) | inactive | – |
| N#Cc1cc([N+](=O)[O-])ccc1Oc1cccc(/C=N/NC(=O)c2cccc(Cl)c2)c1 | inconclusive: 23.1 µM [cytotoxic, single point] | – |
| S=C(NCc1ccco1)N1CCN(c2nc(-c3ccccc3)cs2)CC1 | inconclusive: 29.1 µM [cytotoxic, single point] | – |
| O=C(c1ccco1)N1N=C(c2ccc(Br)cc2)CC1(O)C(F)(F)F (stereo not drawn) | inactive | – |
| CNc1nc(NCc2ccc(C)cc2C)c2sccc2n1 | inactive | – |
| Cc1ccc(OCC(=O)N(Cc2ccc(N(C)C)cc2)C2CCS(=O)(=O)C2)cc1C (stereo not drawn) | inactive | – |
| O=S(=O)(c1ccc2c(c1)OCCO2)N1CCN(c2ncnc3sccc23)CC1 | inconclusive: 2.31 µM [cytotoxic, full curve, poor fit] | – |
| O=S1(=O)C=C(Sc2nnc(-c3ccccc3)o2)c2ccccc21 | active: 14.6 µM | – |
| CC(C)(C)c1ccc(C(=O)NCC(=O)OCC(=O)Nc2ccccc2[N+](=O)[O-])cc1 | inconclusive: 18.4 µM [rising, single point] | – |
| Cc1cc(C(=O)Nc2c(C)nc3ccccn3c2=O)ccc1[N+](=O)[O-] | inactive | – |
| O=C(NC1CC1)C1CCN(c2ccc(S(=O)(=O)N3CCOCC3)cc2Cl)CC1 | inconclusive: 16.4 µM [cytotoxic, single point] | – |
| COc1ccc(C(=O)Nc2ccccc2C(=O)NC(Cc2ccc(O)cc2)C(=O)NNC(=O)c2ccc(C)cc2)cc1 (stereo not drawn) | inactive | – |
| OC(CNCc1ccc(F)cc1)(c1ccc(F)cc1)c1ccc(F)cc1 | inconclusive: 17.8 µM [cytotoxic, single point] | – |
| COc1ccc(Cl)cc1C(=O)C1CCCN(Cc2cnc(N3CCOCC3)s2)C1 (stereo not drawn) | inactive | – |
| Cc1ccc(SC(CC(=O)c2ccc(C)cc2)C(=O)O)cc1 (stereo not drawn) | inactive | – |
| CCCCOc1cccc(OCCCC)c1C(=O)Nc1cc(C)on1 | inconclusive: 20.6 µM [cytotoxic, single point] | – |
| O=C(Nc1ccc(C2CC2(Cl)Cl)cc1)c1cccc([N+](=O)[O-])c1 (stereo not drawn) | inconclusive: 18.4 µM [cytotoxic, partial curve, poor fit] | – |
| O=C(Cn1c(=O)oc2cc(S(=O)(=O)NCc3ccccc3)ccc21)NCc1ccc(Cl)cc1 | inconclusive: 5.17 µM [cytotoxic, partial curve] | – |
| Cc1ccccc1CN1C(=O)c2ccccc2S1(=O)=O | inactive | – |
| CSc1nc(SC(C)C(=O)O)c2c3c(sc2n1)COC(C)(C)C3 (stereo not drawn) | inactive | – |
| Cc1ccc(O)c(C(=O)c2cnn(C(=O)COc3ccc(Cl)cc3)c2)c1 | inactive | – |
| Cc1ccc2c(Cl)c(C)c(N3CCCCC3)nc2n1 | inconclusive: 29.1 µM [cytotoxic, single point] | – |
| CCCNC(=O)c1ccc2snnc2c1 | inactive | – |
| O=C(N/N=C/c1cccs1)C1CC(=O)N(c2ccccc2)C1 (stereo not drawn) | inconclusive: 32.6 µM [rising, partial curve, poor fit] | – |

No new results follow: 4 of the compounds above.

| SMILES | Potency | activity change, negative = cytotoxic |
| --- | --- | --- |
| CCOc1ccccc1CN1CCC(n2nccc2NC(=O)CCCc2ccccc2)CC1 | inactive | – |
| CCc1nc2ccc(C(=O)N(CC)CCN(C)C)cn2c1N(C)C(=O)c1cccc(OC)c1 | inactive | – |
| CC[N+]1(C)CCC(O)(/C=C/c2ccccc2)C(C(=O)/C=C/c2ccccc2)C1 (stereo not drawn) | inconclusive: 20.6 µM [cytotoxic, single point] | – |
| Cc1ccc(S(=O)ONc2cccc(NOS(=O)c3ccc(C)cc3)c2)cc1 (stereo not drawn) | inactive | – |

(next part)

| SMILES | Potency | activity change, negative = cytotoxic |
| --- | --- | --- |
| O=C(/C=C/c1ccco1)NC(=S)Nc1cccc(-c2nc3ccccc3s2)c1 | active: 8.2 µM | – |
| CCOC(=O)C1=C[C@@H](C(C)(C)C)N(S(=O)(=O)c2ccc(C)cc2)[C@H]1c1ccccc1 | inconclusive: 29.1 µM [cytotoxic, single point] | – |
| COC(=O)C1=C(c2ccccc2)c2ccccc2S(=O)(=O)N1CC(=O)Nc1ccccc1Cl | inactive | – |
| COc1cccc(C(=O)NC(=S)Nc2ccccc2N2CCCC2)c1 | inconclusive: 29.1 µM [cytotoxic, single point] | – |
| O=C(Nc1cccc(F)c1)c1ccc(-c2ccccc2)s1 | inactive | – |
| COc1cc(Cl)cc2c1Sc1ccccc1/C2=C/CCN(C)C | inconclusive: 29.1 µM [cytotoxic, single point] | – |
| Cc1[nH]n2c(=O)cc(C(C)(C)C)nc2c1-c1ccccc1 | active: 7.31 µM | – |
| COc1ccc(C=O)cc1Cn1c(C)cc(C)c(C#N)c1=O | inconclusive: 23.1 µM [cytotoxic, partial curve, poor fit] | – |
| Cc1cc(=O)oc2cc(OCC(=O)c3ccccc3)ccc12 | inactive | – |
| COc1ccc(NC(=O)CSc2nnc(CNC(=O)c3ccco3)o2)cc1 | inconclusive: 29.1 µM [rising, single point] | – |
| Cc1cccc(NS(=O)(=O)c2ccc3c(c2)CCN3C(=O)C2CCC2)c1 | inconclusive: 18.4 µM [cytotoxic, partial curve, poor fit] | – |
| O=C1CCCC2=C1C(c1ccc(OS(=O)(=O)c3ccc(Cl)cc3)cc1)C1=C(CCCC1=O)O2 | inconclusive: 20.6 µM [cytotoxic, partial curve] | – |
| COc1ccc2c(c1)NC(c1cccnc1)=NC(c1ccc(F)cc1)=N2 | inactive | – |
| O=C(c1ccc(C(F)(F)F)cc1)N1CCC(=O)N(C(COCc2ccc(C(F)(F)F)cc2)Cc2ccccc2)CC1 (stereo not drawn) | inconclusive: 18.4 µM [cytotoxic, single point] | – |
| Cc1ccccc1Cn1c2ccccc2c2cnn(CC(=O)NCc3ccco3)c(=O)c21 | inconclusive: 29.1 µM [cytotoxic, single point] | – |
| CCOC(=O)C1=C(Nc2ccc(OC)cc2)C(N)=NC1=N | inconclusive: 1.46 µM [cytotoxic, full curve, poor fit] | – |
| COC(=O)c1ccc(-c2ccco2)n1Cc1nc(-c2ccc(OC)c(OC)c2)oc1C | inconclusive: 20.6 µM [cytotoxic, single point] | – |
| CCCCNC(=O)C1(N2C(=O)c3ccccc3C2=O)CCCC1 | inactive | – |
| CC(C)C(=O)Nc1ccc(-c2nc3cccnc3o2)cc1 | inactive | – |
| O=[N+]([O-])c1ccc(O)c(-c2nn[nH]n2)c1 | inactive | – |
| Cc1ccc(CN2C(=O)c3ccccc3Sc3ccc(C(=O)OCc4ccco4)cc32)cc1 | inconclusive: 29.1 µM [cytotoxic, single point] | – |
| O=S(=O)(c1ccc(N2CCCC2)cc1)C(F)(F)F | inactive | – |
| O=C(COc1ccc(F)cc1)N/N=C/c1cccc2cccnc12 | inactive | – |

Source: PubChem BioAssay AID1347075 (National Center for Advancing Translational Sciences (NCATS), 2019)
